Positions count from the first letter of the chain named. Results are given in words; binding and its absence hold for the method and conditions named. Binding seen in cells or lysates may run through a third protein. Some results given as binding are weak or reduced against the parent protein; the word gives no strength.
Columns and labels:
Experiment in all cases: co-IP; mGlu1 and GluD1 (WT or mutant) co-expressed in HEK cells; membrane protein extraction, immunoprecipitation, western blotting
GluD1^T752M (mouse) = molecular target: T1, GluD1^T752M (mouse) (UniProt Q61627)
T1 sequence: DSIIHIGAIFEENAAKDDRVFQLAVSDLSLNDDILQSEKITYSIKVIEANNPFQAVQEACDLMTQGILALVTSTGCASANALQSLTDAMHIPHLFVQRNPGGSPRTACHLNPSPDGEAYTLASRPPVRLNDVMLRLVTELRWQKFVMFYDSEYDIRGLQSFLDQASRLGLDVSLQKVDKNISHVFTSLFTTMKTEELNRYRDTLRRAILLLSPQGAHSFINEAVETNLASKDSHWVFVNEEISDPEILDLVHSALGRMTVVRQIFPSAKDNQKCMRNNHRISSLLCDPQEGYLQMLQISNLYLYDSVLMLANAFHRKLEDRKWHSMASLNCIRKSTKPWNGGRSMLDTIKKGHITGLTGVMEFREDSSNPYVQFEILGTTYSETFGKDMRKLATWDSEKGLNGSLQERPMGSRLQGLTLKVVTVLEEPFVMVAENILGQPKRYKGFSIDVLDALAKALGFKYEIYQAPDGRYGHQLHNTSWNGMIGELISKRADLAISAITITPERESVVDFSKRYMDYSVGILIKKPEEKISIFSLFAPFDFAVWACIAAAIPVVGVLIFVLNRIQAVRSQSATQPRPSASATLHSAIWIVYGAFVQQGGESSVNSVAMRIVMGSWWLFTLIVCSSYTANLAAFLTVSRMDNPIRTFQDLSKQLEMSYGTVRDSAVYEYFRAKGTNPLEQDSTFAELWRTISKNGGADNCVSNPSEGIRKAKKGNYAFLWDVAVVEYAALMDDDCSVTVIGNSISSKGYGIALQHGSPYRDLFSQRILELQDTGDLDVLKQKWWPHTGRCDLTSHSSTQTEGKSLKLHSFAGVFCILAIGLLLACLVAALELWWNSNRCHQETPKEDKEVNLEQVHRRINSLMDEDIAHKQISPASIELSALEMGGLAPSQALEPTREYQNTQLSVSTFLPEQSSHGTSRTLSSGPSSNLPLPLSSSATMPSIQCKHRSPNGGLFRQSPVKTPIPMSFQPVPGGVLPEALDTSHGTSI

Protein sequences, listed by entry. Tags and fused reporters are not part of them. Residues count along the entry.
UniProt P23385, residues 19-1199: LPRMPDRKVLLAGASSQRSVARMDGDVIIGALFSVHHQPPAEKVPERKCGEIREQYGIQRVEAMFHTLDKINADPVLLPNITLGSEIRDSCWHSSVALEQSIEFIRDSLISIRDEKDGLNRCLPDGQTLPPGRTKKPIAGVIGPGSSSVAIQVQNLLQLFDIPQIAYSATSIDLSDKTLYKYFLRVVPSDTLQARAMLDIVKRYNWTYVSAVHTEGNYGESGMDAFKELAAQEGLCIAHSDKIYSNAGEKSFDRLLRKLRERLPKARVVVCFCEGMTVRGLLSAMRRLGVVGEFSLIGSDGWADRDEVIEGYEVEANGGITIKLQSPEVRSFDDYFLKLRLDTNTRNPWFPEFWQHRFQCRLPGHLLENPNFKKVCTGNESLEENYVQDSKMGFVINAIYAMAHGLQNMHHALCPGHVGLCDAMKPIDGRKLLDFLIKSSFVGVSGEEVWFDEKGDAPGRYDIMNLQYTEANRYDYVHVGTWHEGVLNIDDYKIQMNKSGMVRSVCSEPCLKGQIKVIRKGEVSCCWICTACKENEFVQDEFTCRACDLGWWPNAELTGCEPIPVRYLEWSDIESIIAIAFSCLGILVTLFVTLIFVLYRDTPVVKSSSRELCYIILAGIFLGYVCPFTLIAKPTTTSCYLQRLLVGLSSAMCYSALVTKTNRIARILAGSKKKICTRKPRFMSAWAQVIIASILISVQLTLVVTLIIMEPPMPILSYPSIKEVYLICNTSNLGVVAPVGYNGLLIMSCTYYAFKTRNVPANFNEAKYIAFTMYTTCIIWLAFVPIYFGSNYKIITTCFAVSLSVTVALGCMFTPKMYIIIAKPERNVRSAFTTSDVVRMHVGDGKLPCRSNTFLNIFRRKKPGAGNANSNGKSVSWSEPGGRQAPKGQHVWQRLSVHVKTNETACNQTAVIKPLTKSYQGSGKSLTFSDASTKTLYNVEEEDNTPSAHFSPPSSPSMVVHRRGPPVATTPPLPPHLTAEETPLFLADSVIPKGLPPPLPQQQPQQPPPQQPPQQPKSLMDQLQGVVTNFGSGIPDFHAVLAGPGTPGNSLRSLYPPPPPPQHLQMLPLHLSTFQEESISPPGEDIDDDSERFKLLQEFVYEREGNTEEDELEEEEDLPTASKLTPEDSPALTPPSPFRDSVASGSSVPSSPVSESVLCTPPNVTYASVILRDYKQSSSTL

GluD1^R161H (mouse) = molecular target: T2, GluD1^R161H (mouse) (UniProt Q61627)
T2 sequence: T1 sequence with R141H, M732T

[1] = molecular target: T3, mouse WT GluD1 (GluD1^WT) (mouse) (UniProt Q61627)
T3 sequence: T1 sequence with M732T

binding (GluD1^T752M (mouse)): binds | binding (GluD1^R161H (mouse)): binds | binding [1]: binds
Substance: rat mGlu1a (from UniProt P23385 19-1199) (receptor)

From paper PMC11176079
